In patent publication US20210115153A1 (PEPTRON, published 2021):
No constants are given. Whether binding was seen depends on the method and setting. Some entries that bind do so weakly or less than the wild type.

Amino acid sequences for entries named in this document (tags omitted). A change or cut given only in a name is not applied to a line headed by its entry.
UniProt P15941: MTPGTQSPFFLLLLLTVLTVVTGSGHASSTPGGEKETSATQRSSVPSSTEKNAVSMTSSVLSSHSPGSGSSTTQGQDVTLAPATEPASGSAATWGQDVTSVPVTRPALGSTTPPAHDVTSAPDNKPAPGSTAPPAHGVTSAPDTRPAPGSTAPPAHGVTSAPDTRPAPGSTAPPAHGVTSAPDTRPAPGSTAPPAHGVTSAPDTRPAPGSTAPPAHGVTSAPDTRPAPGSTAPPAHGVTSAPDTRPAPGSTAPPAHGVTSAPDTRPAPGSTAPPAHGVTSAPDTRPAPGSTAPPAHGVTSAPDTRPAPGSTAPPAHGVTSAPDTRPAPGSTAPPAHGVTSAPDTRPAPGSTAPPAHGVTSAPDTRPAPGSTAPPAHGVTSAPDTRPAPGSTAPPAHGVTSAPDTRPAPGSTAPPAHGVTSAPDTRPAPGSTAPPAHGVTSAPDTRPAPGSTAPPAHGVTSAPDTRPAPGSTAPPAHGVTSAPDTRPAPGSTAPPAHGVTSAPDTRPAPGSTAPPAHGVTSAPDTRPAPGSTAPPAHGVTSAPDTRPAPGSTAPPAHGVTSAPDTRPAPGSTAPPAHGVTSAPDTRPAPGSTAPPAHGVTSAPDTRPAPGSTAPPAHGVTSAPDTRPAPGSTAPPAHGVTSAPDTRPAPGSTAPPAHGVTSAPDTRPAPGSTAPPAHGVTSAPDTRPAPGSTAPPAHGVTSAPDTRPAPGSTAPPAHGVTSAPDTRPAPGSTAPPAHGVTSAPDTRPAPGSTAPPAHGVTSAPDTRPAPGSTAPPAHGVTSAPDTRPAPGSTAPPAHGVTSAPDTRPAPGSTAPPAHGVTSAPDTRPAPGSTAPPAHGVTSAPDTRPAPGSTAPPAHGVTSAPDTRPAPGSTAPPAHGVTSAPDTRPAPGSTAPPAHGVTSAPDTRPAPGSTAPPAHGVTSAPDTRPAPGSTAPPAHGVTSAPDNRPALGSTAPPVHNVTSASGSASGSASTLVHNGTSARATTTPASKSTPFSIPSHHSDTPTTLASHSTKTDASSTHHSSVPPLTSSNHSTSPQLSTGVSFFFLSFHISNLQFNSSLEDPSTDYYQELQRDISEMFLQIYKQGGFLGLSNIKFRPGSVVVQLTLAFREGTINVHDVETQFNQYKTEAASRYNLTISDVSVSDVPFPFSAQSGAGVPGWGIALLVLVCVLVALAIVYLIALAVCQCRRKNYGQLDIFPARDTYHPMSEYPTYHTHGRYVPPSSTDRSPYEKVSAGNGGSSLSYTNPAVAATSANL

Legend:
[1] = target: human MUC1 protein (Mucin 1), endogenous in human cancer cell lines (human) (UniProt P15941); assay: flow cytometry (legend of FIG. 19)
[2] = target: human MUC1 protein (Mucin 1), endogenous in human cancer cell lines (human) (UniProt P15941); assay: flow cytometry on ZR75-1 cells (legend of FIG. 20)
[3] = target: human MUC1 protein (Mucin 1), endogenous in human cancer cell lines (human) (UniProt P15941); assay: flow cytometry on paraformaldehyde-fixed cells, FITC anti-human IgG
[4] = target: human MUC1 protein (Mucin 1), endogenous in human cancer cell lines (human) (UniProt P15941); assay: flow cytometry on ZR75-1 cells, several antibody concentrations
[5] = target: human MUC1 protein (Mucin 1), endogenous in human cancer cell lines (human) (UniProt P15941); assay: immunofluorescence of fixed cells (surface and intracellular), confocal microscopy
[6] = target: human MUC1 protein (Mucin 1), endogenous in human cancer cell lines (human) (UniProt P15941); assay: immunoprecipitation from native cell lysates (FIG. 3B)
[7] = target: human MUC1 protein (Mucin 1), endogenous in human cancer cell lines (human) (UniProt P15941); assay: DyLight 488-labelled antibody on living cancer cells at 37 °C, confocal microscopy
[8] = target: human MUC1 protein (Mucin 1), endogenous in human cancer cell lines (human) (UniProt P15941); assay: immunoprecipitation from PNGase F-treated T47D lysate, immunoblot with anti-MUC1-CT or anti-MUC1-CT2
[9] = target: human MUC1 protein (Mucin 1), endogenous in human cancer cell lines (human) (UniProt P15941); assay: intravenous injection into mice with T47D, ZR75-1 or Capan-2 tumors, fluorescence of tumor sections
[10] = target: human MUC1 protein (Mucin 1), endogenous in human cancer cell lines (human) (UniProt P15941); assay: immunoprecipitation from native cell lysates, immunoblot with anti-MUC1-CT
[11] = target: human MUC1 protein (Mucin 1), endogenous in human cancer cell lines (human) (UniProt P15941); assay: immunoprecipitation from native pancreatic cancer cell lysates, immunoblot
[12] = target: human MUC1 protein (Mucin 1), endogenous in human cancer cell lines (human) (UniProt P15941); assay: immunofluorescence of breast cancer cells, confocal microscopy

Measured: binding

B1: anti-hMUC1-C humanized antibody (G3) (antibody, V domains shown)
VH: EVQLVQSGAEVKKPGATVKISCKVSGYTFTSYWMHWVQQAPGKGLEWIGYINPGTGYIEYNQKFKDRVTITADKSTDTAYMELSSLRSEDTAVYYCASSTAPFDYWGQGTLVTVSS
VL: EIVLTQSPGTLSLSPGERATLSCKASQDIKSYLSWYQQKPGQAPRLLIYYATRLADGIPDRFSGSGSGTDFTLTISRLEPEDFAVYYCLQYDESPYTFGQGTKLEIKR
binds: [1] | [2] | [3] | [4]

B2: anti-hMUC1 monoclonal antibody purified from hybridoma hMUC1-1H7 (KCLRF-BP-00395) (antibody, V domains shown)
VH: EVQLQQSGAELAKPGASVKMSCKVSGYTFTSYWMHWVKQRPGQGLEWIGYINPGTGYIEYNQKFKDKATLTADKSSSTAYMQLSSLTSEDSAVYYCASSTAPFDYWGQGTTLTVSS
VL: DIVITQSPSSMYASLGERVTITCKASQDIKSYLSWYQQKPWKSPKTLIYYATRLADGVPSRFSGSGSGQDYSLTISSLESDDTATYYCLQYDESPYTFGGGTKLEIKR
notes: also called anti-hMUC1 antibody; anti-hMUC1-C mouse antibody (1H7)
not listed: [1] | [3] | [12]
binds: all other assays above

B3: recombinant Fab-hMUC1-1H7 (Fab, V domains shown, not shown: a dimerising Fc or GST; small tags and cut ends)
VH: EVQLQQSGAELAKPGASVKMSCKVSGYTFTSYWMHWVKQRPGQGLEWIGYINPGTGYIEYNQKFKDKATLTADKSSSTAYMQLSSLTSEDSAVYYCASSTAPFDYWGQGTTLTVSS
VL: DIVITQSPSSMYASLGERVTITCKASQDIKSYLSWYQQKPWKSPKTLIYYATRLADGVPSRFSGSGSGQDYSLTISSLESDDTATYYCLQYDESPYTFGGGTKLEIKR
binds: [12]
